Measured values: paper PMC10901781
Results are given in words; binding and its absence hold for the method and conditions named. In cells and extracts the contact can be indirect. A result given as binding can be weak or reduced; the word gives no strength.

By UniProt entry, the sequences of proteins in these tests, tags left out. Where a name states a change or a piece, a line headed by the entry shows the natural chain unless it says otherwise.
UniProt Q01196: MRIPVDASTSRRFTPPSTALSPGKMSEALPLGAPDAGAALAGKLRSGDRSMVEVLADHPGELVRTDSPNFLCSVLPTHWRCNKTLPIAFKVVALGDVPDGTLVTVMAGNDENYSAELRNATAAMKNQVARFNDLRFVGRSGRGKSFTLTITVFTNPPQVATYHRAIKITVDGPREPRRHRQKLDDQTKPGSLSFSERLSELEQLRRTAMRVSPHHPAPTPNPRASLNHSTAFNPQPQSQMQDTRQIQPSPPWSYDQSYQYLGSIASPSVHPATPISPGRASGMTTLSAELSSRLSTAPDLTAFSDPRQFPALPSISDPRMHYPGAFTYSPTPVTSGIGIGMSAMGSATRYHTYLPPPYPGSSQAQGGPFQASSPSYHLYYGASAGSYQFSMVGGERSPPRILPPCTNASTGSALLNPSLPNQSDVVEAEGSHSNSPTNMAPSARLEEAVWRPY

Target: RUNX1 with Runt domain mutation (primary AML samples) (human (endogenous in primary AML cells)) (UniProt Q01196)
Assay: co-IP; IP and western blot of primary AML samples with wild-type RUNX1 or with a Runt domain mutation

binding: binds
B1: PHF6 (primary AML samples) (protein, UniProt Q8IWS0 1-365)
chain: MSSSVEQKKGPTRQRKCGFCKSNRDKECGQLLISENQKVAAHHKCMLFSSALVSSHSDNESLGGFSIEDVQKEIKRGTKLMCSLCHCPGATIGCDVKTCHRTYHYHCALHDKAQIREKPSQGIYMVYCRKHKKTAHNSEADLEESFNEHELEPSSPKSKKKSRKGRPRKTNFKGLSEDTRSTSSHGTDEMESSSYRDRSPHRSSPSDTRPKCGFCHVGEEENEARGKLHIFNAKKAAAHYKCMLFSSGTVQLTTTSRAEFGDFDIKTVLQEIKRGKRMKCTLCSQPGATIGCEIKACVKTYHYHCGVQDKAKYIENMSRGIYKLYCKNHSGNDERDEEDEERESKSRGKVEIDQQQLTQQQLNGN
